Experimental data: PubChem BioAssay AID1159591 (NIAID, 2016)

Aim: 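TLR7/8 agonist R848 and Tnf expression after gene knock-down in mouse macrophages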
Cell system: mouse RAW264.7 G9 macrophage reporter clone (GFP-p65, Tnf promoter-mCherry)
Knock-down reagent: single siRNA against mouse genes
Duration: cells assayed 48 to 72 hours after siRNA transfection; R848 for 16 hours before fixing
Conditions: R848 (TLR7/8 agonist) for 16 hours before fixation; dose not given
Measured: 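After R848 for 16 hours, nuclear Tnf promoter mCherry signal imaged minus background, scaled per plate by median and MAD into robust z against non-targeting controls, averaged across replicates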
Scale: mean Tnf reporter z-score: higher = stronger Tnf promoter reporter signal than controls
Call rule: 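Absolute z above 1, 1.5, 2 or 2.5 scores 25 up to 100; no stated active threshold; in practice calls fall at roughly z ≤ -1.5 or z ≥ 1.5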
Meaning of the calls: active = reporter clearly up or down; inactive = little reporter change
The whole screen tested 756 reagents; below is a part drawn at random. Over the whole deposit, 130 (17%) are marked active. 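Active calls include both lower and higher Tnf reporter signal.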 Reagents against one gene are numbered here. No sequences are given here. The record does not give: the amount of reagent.

Tbk1 (TANK-binding kinase 1) #1
- mean Tnf reporter z-score: -0.7
- activity call: inactive

Tbk1 (TANK-binding kinase 1) #2
- mean Tnf reporter z-score: 0.281
- activity call: inactive

Tbk1 (TANK-binding kinase 1) #3
- mean Tnf reporter z-score: -0.186
- activity call: inactive

Tbk1 (TANK-binding kinase 1) #4
- mean Tnf reporter z-score: 0.498
- activity call: inactive

Tbk1 (TANK-binding kinase 1) #5
- mean Tnf reporter z-score: 0.818
- activity call: inactive

Tbk1 (TANK-binding kinase 1) #6
- mean Tnf reporter z-score: 1.45
- activity call: inactive

Pik3r3 (phosphoinositide-3-kinase regulatory subunit 3) #1
- mean Tnf reporter z-score: -0.894
- activity call: inactive

Pik3r3 (phosphoinositide-3-kinase regulatory subunit 3) #2
- mean Tnf reporter z-score: 0.917
- activity call: inactive

Pik3r3 (phosphoinositide-3-kinase regulatory subunit 3) #3
- mean Tnf reporter z-score: 0.0601
- activity call: inactive

Pik3r3 (phosphoinositide-3-kinase regulatory subunit 3) #4
- mean Tnf reporter z-score: -0.483
- activity call: inactive

Pik3r3 (phosphoinositide-3-kinase regulatory subunit 3) #5
- mean Tnf reporter z-score: 0.397
- activity call: inactive

Pik3r3 (phosphoinositide-3-kinase regulatory subunit 3) #6
- mean Tnf reporter z-score: -0.69
- activity call: inactive

Btk (Bruton agammaglobulinemia tyrosine kinase) #1
- mean Tnf reporter z-score: -0.208
- activity call: inactive

Btk (Bruton agammaglobulinemia tyrosine kinase) #2
- mean Tnf reporter z-score: -1.06
- activity call: inactive

Btk (Bruton agammaglobulinemia tyrosine kinase) #3
- mean Tnf reporter z-score: -0.839
- activity call: inactive

Btk (Bruton agammaglobulinemia tyrosine kinase) #4
- mean Tnf reporter z-score: -0.666
- activity call: inactive

Btk (Bruton agammaglobulinemia tyrosine kinase) #5
- mean Tnf reporter z-score: -2.45
- activity call: active

Btk (Bruton agammaglobulinemia tyrosine kinase) #6
- mean Tnf reporter z-score: -3.12
- activity call: active

Map3k7 (mitogen-activated protein kinase kinase kinase 7) #1
- mean Tnf reporter z-score: -0.016
- activity call: inactive

Map3k7 (mitogen-activated protein kinase kinase kinase 7) #2
- mean Tnf reporter z-score: -0.093
- activity call: inactive

Map3k7 (mitogen-activated protein kinase kinase kinase 7) #3
- mean Tnf reporter z-score: -1.1
- activity call: inactive

Map3k7 (mitogen-activated protein kinase kinase kinase 7) #4
- mean Tnf reporter z-score: 0.202
- activity call: inactive

Map3k7 (mitogen-activated protein kinase kinase kinase 7) #5
- mean Tnf reporter z-score: -1.45
- activity call: inactive

Map3k7 (mitogen-activated protein kinase kinase kinase 7) #6
- mean Tnf reporter z-score: -2.17
- activity call: active

Ptk2b (PTK2 protein tyrosine kinase 2 beta) #1
- mean Tnf reporter z-score: -0.064
- activity call: inactive

Ptk2b (PTK2 protein tyrosine kinase 2 beta) #2
- mean Tnf reporter z-score: 1.17
- activity call: inactive

Ptk2b (PTK2 protein tyrosine kinase 2 beta) #3
- mean Tnf reporter z-score: -1.02
- activity call: inactive

Ptk2b (PTK2 protein tyrosine kinase 2 beta) #4
- mean Tnf reporter z-score: -0.452
- activity call: inactive

Ptk2b (PTK2 protein tyrosine kinase 2 beta) #5
- mean Tnf reporter z-score: 1.16
- activity call: inactive

Ptk2b (PTK2 protein tyrosine kinase 2 beta) #6
- mean Tnf reporter z-score: -0.407
- activity call: inactive

Stat1 (signal transducer and activator of transcription 1) #1
- mean Tnf reporter z-score: 0.792
- activity call: inactive

Stat1 (signal transducer and activator of transcription 1) #2
- mean Tnf reporter z-score: 0.0908
- activity call: inactive

Stat1 (signal transducer and activator of transcription 1) #3
- mean Tnf reporter z-score: -0.529
- activity call: inactive

Stat1 (signal transducer and activator of transcription 1) #4
- mean Tnf reporter z-score: -0.618
- activity call: inactive

Stat1 (signal transducer and activator of transcription 1) #5
- mean Tnf reporter z-score: -0.217
- activity call: inactive

Stat1 (signal transducer and activator of transcription 1) #6
- mean Tnf reporter z-score: -1.62
- activity call: active

Ep300 (E1A binding protein p300) #1
- mean Tnf reporter z-score: -1.47
- activity call: inactive

Ep300 (E1A binding protein p300) #2
- mean Tnf reporter z-score: -1.13
- activity call: inactive

Ep300 (E1A binding protein p300) #3
- mean Tnf reporter z-score: 0.00922
- activity call: inactive

Ep300 (E1A binding protein p300) #4
- mean Tnf reporter z-score: 0.0777
- activity call: inactive

Ep300 (E1A binding protein p300) #5
- mean Tnf reporter z-score: -2.03
- activity call: active

Ep300 (E1A binding protein p300) #6
- mean Tnf reporter z-score: -1.67
- activity call: active

Akt2 (Akt serine/threonine kinase 2) #1
- mean Tnf reporter z-score: -1.38
- activity call: inactive

Akt2 (Akt serine/threonine kinase 2) #2
- mean Tnf reporter z-score: -0.713
- activity call: inactive

Akt2 (Akt serine/threonine kinase 2) #3
- mean Tnf reporter z-score: -0.0111
- activity call: inactive

Akt2 (Akt serine/threonine kinase 2) #4
- mean Tnf reporter z-score: -0.736
- activity call: inactive

Akt2 (Akt serine/threonine kinase 2) #5
- mean Tnf reporter z-score: -0.709
- activity call: inactive

Akt2 (Akt serine/threonine kinase 2) #6
- mean Tnf reporter z-score: -0.266
- activity call: inactive

Ifnar1 (interferon (alpha and beta) receptor 1) #1
- mean Tnf reporter z-score: -0.661
- activity call: inactive

Ifnar1 (interferon (alpha and beta) receptor 1) #2
- mean Tnf reporter z-score: -0.417
- activity call: inactive

Ifnar1 (interferon (alpha and beta) receptor 1) #3
- mean Tnf reporter z-score: -1.36
- activity call: inactive

Ifnar1 (interferon (alpha and beta) receptor 1) #4
- mean Tnf reporter z-score: 0.929
- activity call: inactive

Ifnar1 (interferon (alpha and beta) receptor 1) #5
- mean Tnf reporter z-score: -1.86
- activity call: active

Ifnar1 (interferon (alpha and beta) receptor 1) #6
- mean Tnf reporter z-score: -1.1
- activity call: inactive

Irf9 (interferon regulatory factor 9) #1
- mean Tnf reporter z-score: 0.962
- activity call: inactive

Irf9 (interferon regulatory factor 9) #2
- mean Tnf reporter z-score: -0.554
- activity call: inactive

Irf9 (interferon regulatory factor 9) #3
- mean Tnf reporter z-score: 0.551
- activity call: inactive

Irf9 (interferon regulatory factor 9) #4
- mean Tnf reporter z-score: 1.91
- activity call: active

Irf9 (interferon regulatory factor 9) #5
- mean Tnf reporter z-score: 1.83
- activity call: active

Irf9 (interferon regulatory factor 9) #6
- mean Tnf reporter z-score: -0.218
- activity call: inactive
